Results on 13 compounds are retold here after the M2OR odorant receptor database.

Chains of the proteins cited; added tags and fusions are not shown. Where a name states a change or a piece, a line headed by the entry shows the natural chain unless it says otherwise. Chains listed by the source or under a name are the forms on record and can include a tag or linker.
UniProt Q8NH37: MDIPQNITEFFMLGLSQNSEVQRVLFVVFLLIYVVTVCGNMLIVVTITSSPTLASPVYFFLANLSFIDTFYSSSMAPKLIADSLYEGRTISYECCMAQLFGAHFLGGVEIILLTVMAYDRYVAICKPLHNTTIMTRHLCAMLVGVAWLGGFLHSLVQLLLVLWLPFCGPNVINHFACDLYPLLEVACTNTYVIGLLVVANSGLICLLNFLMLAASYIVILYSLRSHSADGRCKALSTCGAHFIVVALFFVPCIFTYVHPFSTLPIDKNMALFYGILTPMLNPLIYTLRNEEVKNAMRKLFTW
UniProt Q8NH72: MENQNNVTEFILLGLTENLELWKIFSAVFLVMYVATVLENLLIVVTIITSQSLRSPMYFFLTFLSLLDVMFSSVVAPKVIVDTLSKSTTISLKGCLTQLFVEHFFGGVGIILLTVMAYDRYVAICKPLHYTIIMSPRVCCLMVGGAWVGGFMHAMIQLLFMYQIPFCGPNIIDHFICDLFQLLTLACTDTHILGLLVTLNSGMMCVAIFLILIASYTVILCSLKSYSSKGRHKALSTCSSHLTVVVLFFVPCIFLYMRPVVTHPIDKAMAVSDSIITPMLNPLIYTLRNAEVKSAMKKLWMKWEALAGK
UniProt Q8NGI6: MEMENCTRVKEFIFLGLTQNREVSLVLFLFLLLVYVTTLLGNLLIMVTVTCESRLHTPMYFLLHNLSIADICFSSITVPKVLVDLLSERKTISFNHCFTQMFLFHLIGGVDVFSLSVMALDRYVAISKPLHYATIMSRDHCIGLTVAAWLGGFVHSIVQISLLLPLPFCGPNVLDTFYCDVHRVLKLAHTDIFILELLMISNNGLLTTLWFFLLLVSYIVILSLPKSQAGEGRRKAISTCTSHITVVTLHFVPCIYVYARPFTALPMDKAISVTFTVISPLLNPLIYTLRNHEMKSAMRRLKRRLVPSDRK
UniProt Q8NGI4: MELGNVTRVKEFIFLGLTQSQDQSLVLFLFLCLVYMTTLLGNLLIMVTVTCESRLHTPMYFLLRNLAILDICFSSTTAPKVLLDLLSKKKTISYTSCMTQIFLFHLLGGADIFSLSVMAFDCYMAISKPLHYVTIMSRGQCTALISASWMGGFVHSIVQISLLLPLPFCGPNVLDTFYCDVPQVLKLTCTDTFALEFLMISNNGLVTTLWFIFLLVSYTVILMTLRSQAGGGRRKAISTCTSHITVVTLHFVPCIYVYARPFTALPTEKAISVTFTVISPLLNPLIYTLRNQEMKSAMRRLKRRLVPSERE
UniProt Q8NGN0: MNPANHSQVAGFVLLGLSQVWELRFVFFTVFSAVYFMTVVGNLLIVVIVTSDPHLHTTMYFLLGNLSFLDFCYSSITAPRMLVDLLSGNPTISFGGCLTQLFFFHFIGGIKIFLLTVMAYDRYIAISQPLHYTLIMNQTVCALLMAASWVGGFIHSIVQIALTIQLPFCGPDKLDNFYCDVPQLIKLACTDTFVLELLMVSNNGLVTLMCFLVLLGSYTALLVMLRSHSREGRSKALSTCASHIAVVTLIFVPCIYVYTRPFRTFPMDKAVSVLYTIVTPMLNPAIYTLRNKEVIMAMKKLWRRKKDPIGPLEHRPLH
OR4CC, as listed by the source: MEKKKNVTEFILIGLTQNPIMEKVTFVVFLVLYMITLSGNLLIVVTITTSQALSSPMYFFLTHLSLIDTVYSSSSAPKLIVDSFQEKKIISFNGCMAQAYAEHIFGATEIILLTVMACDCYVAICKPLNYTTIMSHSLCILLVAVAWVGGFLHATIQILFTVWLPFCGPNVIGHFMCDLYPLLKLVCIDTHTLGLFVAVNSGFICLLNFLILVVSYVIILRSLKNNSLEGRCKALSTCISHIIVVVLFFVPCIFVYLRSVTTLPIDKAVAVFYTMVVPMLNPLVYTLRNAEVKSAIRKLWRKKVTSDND
OR4CF, as listed by the source: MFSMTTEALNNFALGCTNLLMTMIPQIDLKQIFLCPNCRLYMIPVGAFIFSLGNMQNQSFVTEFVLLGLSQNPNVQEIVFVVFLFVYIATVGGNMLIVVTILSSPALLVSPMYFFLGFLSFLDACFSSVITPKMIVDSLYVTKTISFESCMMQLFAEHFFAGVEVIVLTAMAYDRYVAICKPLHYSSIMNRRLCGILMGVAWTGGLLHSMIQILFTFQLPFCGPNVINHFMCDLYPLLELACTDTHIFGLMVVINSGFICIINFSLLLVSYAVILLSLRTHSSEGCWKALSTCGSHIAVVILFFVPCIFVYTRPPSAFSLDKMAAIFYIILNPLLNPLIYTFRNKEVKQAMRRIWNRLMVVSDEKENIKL
OR4D1, as listed by the source: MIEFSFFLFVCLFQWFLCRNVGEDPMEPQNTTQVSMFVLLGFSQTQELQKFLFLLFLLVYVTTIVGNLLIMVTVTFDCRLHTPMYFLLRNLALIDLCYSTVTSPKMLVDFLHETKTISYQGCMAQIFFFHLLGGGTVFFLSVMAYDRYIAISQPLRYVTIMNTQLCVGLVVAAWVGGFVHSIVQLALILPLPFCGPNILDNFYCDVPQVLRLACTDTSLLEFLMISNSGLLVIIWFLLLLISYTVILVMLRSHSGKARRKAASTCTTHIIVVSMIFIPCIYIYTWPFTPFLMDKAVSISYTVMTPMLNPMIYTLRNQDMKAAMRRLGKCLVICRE
OR4C5, as listed by the source: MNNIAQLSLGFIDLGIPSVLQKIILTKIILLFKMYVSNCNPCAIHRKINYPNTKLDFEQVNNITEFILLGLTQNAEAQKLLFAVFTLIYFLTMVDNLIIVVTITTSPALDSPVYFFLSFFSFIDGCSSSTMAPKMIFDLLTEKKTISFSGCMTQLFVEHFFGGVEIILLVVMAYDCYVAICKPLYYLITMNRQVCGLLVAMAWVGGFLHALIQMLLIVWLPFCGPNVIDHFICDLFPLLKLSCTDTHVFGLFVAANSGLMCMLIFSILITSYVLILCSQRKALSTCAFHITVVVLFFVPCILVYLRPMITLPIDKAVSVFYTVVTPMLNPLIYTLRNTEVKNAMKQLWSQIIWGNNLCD
OR4C3, as listed by the source: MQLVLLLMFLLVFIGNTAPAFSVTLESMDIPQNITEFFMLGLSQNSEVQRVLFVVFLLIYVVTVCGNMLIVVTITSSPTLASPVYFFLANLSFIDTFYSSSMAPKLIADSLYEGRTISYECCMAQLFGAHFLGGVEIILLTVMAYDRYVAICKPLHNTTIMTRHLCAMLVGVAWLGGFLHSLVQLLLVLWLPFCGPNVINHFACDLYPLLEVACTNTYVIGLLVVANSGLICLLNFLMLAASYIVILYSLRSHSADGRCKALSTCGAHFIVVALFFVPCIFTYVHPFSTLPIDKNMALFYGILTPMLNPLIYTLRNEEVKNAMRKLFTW
OR4D2, as listed by the source: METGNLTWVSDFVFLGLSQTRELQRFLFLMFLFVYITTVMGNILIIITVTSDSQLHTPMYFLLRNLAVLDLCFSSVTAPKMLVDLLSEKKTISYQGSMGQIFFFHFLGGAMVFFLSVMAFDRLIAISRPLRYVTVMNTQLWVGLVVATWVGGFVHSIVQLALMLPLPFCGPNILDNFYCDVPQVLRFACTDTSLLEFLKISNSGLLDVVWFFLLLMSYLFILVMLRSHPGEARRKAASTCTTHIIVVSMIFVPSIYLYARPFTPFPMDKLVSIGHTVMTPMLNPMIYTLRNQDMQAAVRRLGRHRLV

Conditions in all cases: stereoisomer not certain
In assay [1] the target is OR4C3 (Homo sapiens) (UniProt Q8NH37). The gist of the method: (§1)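 Each receptor–molecule pair is labelled responsive or non-responsive (inactive) according to whether the original authors judged the measured signal statistically different from baseline. The data were taken from the main text and supplementary material of published papers and checked for typos and inconsistencies. Assay methods differed by source, with transient luciferase assays in mammalian cell lines being common.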

The subject of assay [2] is OR4C3. The gist of the method: as §1
Assay [3] concerns OR4C5. The gist of the method:
as §1

The target of assay [4] is OR4C6 (Homo sapiens) (UniProt Q8NH72). The gist of the method: as §1
Assay [5] relates to OR4CC. The gist of the method:
as §1

Assay [6] relates to OR4CF. The gist of the method: as §1
Assay [7] relates to T1, OR4CG.
T1 sequence (whole entry): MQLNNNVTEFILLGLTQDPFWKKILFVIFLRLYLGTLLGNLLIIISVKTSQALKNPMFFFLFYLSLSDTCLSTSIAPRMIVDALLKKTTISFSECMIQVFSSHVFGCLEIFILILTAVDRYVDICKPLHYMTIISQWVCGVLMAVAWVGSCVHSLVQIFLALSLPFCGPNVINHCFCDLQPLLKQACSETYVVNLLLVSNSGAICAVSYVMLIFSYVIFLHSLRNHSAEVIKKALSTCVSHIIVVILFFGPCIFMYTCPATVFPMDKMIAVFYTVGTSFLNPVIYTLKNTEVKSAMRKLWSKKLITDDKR
The essentials: as §1

Assay [8] concerns the target OR4D10 (Homo sapiens) (UniProt Q8NGI6). The gist of the method: as §1
The target of assay [9] is OR4D11 (Homo sapiens) (UniProt Q8NGI4). The gist of the method:
as §1

Assay [10] concerns OR4D1. The essentials:
as §1

Assay [11] has as its system OR4D2. The essentials:
as §1

The target in assay [12] is OR4D5 (Homo sapiens) (UniProt Q8NGN0). The essentials:
as §1

Molecules are shown by their SMILES. The list shows a part of the results, in another mix than the full data. Calls are pooled over several reports, among them a noisy single-well screen. The list shows a part of the results.
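Further: active if original authors judged signal statistically different from baseline.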

In the case of `O=C1CCCCCCCCCCCC(=O)OCCO1`, the “odorant receptor agonist call” value in assay [1], in [2], in assay [3], in assay [4], in [5] and in [6] was “inactive” throughout. For the same compound, the “odorant receptor agonist call” value in [7], in [9], in assay [10], in assay [11] and in assay [12] was “inactive” each time. In addition, the “odorant receptor agonist call” value in assay [8] was “active”.

As to `COC(=O)c1ccccc1`, the “odorant receptor agonist call” value in assay [1], in assay [2], in [3], in assay [5], in assay [6] and in assay [8] was “inactive” each time. The “odorant receptor agonist call” value in [9], in assay [10] and in assay [11] was “inactive” throughout.

Consider `CC(C)(O)CCCC1=CCC(C=O)CC1` (centres undefined), for which the “odorant receptor agonist call” value in assay [7] and in assay [12] was “inactive” throughout.

Regarding `c1ccc(Oc2ccccc2)cc1`, the “odorant receptor agonist call” value in assay [1], in assay [2], in assay [3], in assay [4], in assay [5] and in assay [6] was “inactive” in each case. Moreover, the “odorant receptor agonist call” value in [7], in [8], in [9], in assay [10], in assay [11] and in assay [12] was “inactive” in each case.

On to `CC1CCC(C(C)C)C(O)C1` (centres undefined), for which, in assay [1], the “odorant receptor agonist call” value is “active”. The “odorant receptor agonist call” value in assay [2], in assay [3], in [4], in [5], in [6] and in [7] was “inactive” each time. Also, the “odorant receptor agonist call” value in assay [8], in assay [9], in assay [11] and in assay [12] was “inactive” each time.

With `O=C1CCCCCCCCCCCCCCO1`, the “odorant receptor agonist call” value in [1], in assay [2], in [3], in assay [4], in assay [5] and in assay [6] was “inactive” throughout. The “odorant receptor agonist call” value in [7], in assay [8], in assay [9], in [10], in assay [11] and in [12] was “inactive” in each case.

As for `C=CCc1ccc(OC)c(OC)c1`, the “odorant receptor agonist call” value in assay [1], in [2], in assay [3], in [4], in [5] and in assay [6] was “inactive” in each case. Moreover, the “odorant receptor agonist call” value in [8], in [9], in assay [10], in assay [11] and in [12] was “inactive” throughout. In assay [7], the “odorant receptor agonist call” value was “active”.

Take `CC(C)(C)c1ccc(CCC=O)cc1`: the “odorant receptor agonist call” value in [1], in assay [2], in assay [3], in assay [4], in assay [5] and in [6] was “inactive” in each case. Besides, the “odorant receptor agonist call” value in assay [7], in assay [8], in [9], in assay [10], in [11] and in assay [12] was “inactive” throughout.

Take `CCCCCC(=O)O`: the “odorant receptor agonist call” value in [1], in assay [2], in assay [3], in assay [4], in assay [5] and in assay [6] was “inactive” each time. Besides, the “odorant receptor agonist call” value in [7], in assay [8], in assay [9], in [10], in [11] and in [12] was “inactive” in each case.

For `CC1=NC(C)SC1C` (centres undefined), the “odorant receptor agonist call” value in assay [1], in [2], in assay [3], in assay [5], in [6] and in [8] was “inactive” in each case. The “odorant receptor agonist call” value in assay [9], in [10] and in assay [11] was “inactive” throughout.

Turning to `CC(C)CCC(=O)O`, the “odorant receptor agonist call” value in assay [1], in [2], in [3], in assay [4], in assay [5] and in assay [6] was “inactive” throughout. Moreover, the “odorant receptor agonist call” value in [7], in [8], in assay [9], in assay [10], in assay [11] and in [12] was “inactive” in each case.

As to `CCCCO`, the “odorant receptor agonist call” value in assay [1], in assay [2], in assay [3], in [4], in [5] and in [6] was “inactive” throughout. The “odorant receptor agonist call” value in assay [7], in assay [8], in [9], in [10], in assay [11] and in [12] was “inactive” in each case.

Consider `CCCC(=O)O`, for which the “odorant receptor agonist call” value in [1], in [2], in [3], in [4], in assay [5] and in [6] was “inactive” throughout. Further, the “odorant receptor agonist call” value in assay [7], in assay [8], in [9], in assay [10], in assay [11] and in [12] was “inactive” throughout.
